Data: publication PMC9035508
These are yes or no findings as the source states them, for the method shown.

Sequences of proteins named here, by UniProt entry; tags and fusion partners are left off. Residues count along the entry.
UniProt Q9HCN6, residues 21-267: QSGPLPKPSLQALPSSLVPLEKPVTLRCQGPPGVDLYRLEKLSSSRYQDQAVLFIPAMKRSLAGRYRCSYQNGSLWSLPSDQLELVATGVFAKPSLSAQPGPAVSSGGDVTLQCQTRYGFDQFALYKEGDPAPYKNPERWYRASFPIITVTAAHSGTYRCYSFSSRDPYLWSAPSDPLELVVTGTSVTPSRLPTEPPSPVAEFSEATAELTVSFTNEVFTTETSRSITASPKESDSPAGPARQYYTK

Assays:
[1] = molecular target: T1, FXIII B-subunit (rh-FXIIIB2), recombinant (human) (UniProt P05160); test: ELISA; FXIII proteins or collagen type III coated at 10 µg/mL; GPVI-Fc2 or GPVIex at a fixed 50 µg/mL; bound GPVI detected by 1G5/IRDye 800CW anti-mouse antibody (Figure 1A, 1C); both purified
T1 sequence: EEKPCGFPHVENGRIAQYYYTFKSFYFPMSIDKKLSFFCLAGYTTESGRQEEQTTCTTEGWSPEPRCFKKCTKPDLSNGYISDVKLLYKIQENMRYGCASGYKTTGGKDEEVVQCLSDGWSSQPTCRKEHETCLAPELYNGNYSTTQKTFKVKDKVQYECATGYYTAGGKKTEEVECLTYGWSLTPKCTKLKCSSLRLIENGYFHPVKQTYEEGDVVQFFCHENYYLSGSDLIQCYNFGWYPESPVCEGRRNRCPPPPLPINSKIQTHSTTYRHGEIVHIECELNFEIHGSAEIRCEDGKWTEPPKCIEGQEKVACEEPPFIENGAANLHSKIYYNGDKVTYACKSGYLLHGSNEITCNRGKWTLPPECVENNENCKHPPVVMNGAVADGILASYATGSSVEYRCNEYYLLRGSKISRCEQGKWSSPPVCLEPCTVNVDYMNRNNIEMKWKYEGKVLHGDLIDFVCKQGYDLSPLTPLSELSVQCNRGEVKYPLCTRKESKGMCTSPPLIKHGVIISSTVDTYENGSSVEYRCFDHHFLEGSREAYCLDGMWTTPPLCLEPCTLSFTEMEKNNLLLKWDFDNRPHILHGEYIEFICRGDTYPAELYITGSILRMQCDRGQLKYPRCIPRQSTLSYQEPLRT

[2] = molecular target: T1, FXIII B-subunit (rh-FXIIIB2), recombinant (human); test: ELISA; FXIII proteins or collagen type III coated on wells at 10 µg/mL (overnight, 4°C), blocked with 0.5% BSA; GPVI-Fc2 added at varied concentrations; bound GPVI detected by 1G5/IRDye 800CW anti-mouse antibody; KD from binding curves (Figure 1B); both purified

Row | Substance | binding [1] | binding [2]
1 | GPVI-Fc2 (recombinant human GPVI extracellular domain, dimer) (from UniProt Q9HCN6 21-267) (Fc fusion) | no binding (tested: 50 µg/mL) | no binding
2 | GPVIex (recombinant human GPVI extracellular domain, monomer) (from UniProt Q9HCN6 21-267) (domain or fragment) | no binding (tested: 50 µg/mL) | –
